Reference: paper PMC11483813 (Inorganic Chemistry, 2024)

What was measured:
A549 cells = test: Intracellular distribution, confocal colocalization; format: cell-based, human; settings: 1 μM, 1 h
[1] = general procedure: Fmoc solid-phase peptide synthesis; aminomethyl ChemMatrix (0.69 mmol/g) with Fmoc-Rink-amide linker; DIC/Oxyma; settings: whole synthesis, 220 nm

Compound | Pearson correlation coefficient (PCC) with LysoTracker Green DND-26 (A549 cells; lysosomes) | Pearson correlation coefficient (PCC) with MitoView Green (A549 cells; mitochondria) | final HPLC purity [1] [%]
COC(=O)/C=C/c1ccc(-c2nccc3c4ccccc4n(C)c23)nc1.[Cl-].[Ir+3].[c-]1ccccc1-c1ccccn1.[c-]1ccccc1-c1ccccn1 [Ir-Me] | 0.599 | 0.832 | –
Ir-Gln-Arg-Leu-Gly-Asn-Gln-Trp-Ala-Val-Gly-His-Leu-Leu-NH 2 [Ir-BN] | – | – | >99
